PubChem BioAssay AID1259308, NCATS – 2017

Test: 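Knock-downs that increase output of a recombinant reporter protein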 (primary screen)
Cell system: human HEK293 embryonic kidney cells stably expressing firefly luciferase (HEK-CMV-Luc2-Hygro)
Reagents: single siRNA against human genes, 0.8 pmol siRNA per well
Time to read-out: 72 h
Read-out: 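Luciferase light (ONE-Glo) measured on one replicate plate set and viability (CellTiter-Glo) on the other, scaled to a negative control siRNA, with robust z-scores and luciferase per cell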
Reading the numbers: total luciferase, z-score and total luciferase, % of control: higher = more reporter protein produced; luciferase per cell, z-score: higher = more reporter output per viable cell
Hit rule: 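Active when the median/MAD z-score for overall luciferase is greater than 3; a gene was taken forward for validation with new siRNAs if at least two of its three siRNAs passed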
Meaning of the calls: active = raised luciferase; inactive = no rise
The whole screen tested about 59,000 reagents; below is an unselected part. About 1,510 of all reagents (2.6%) were called active. 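Calls use total luciferase alone and ignore viability, so some active siRNAs may act by altering cell number.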 Unmarked entries are inactive. The numbers tell different reagents against one gene apart. Not all columns of the deposit are shown.

Target gene	reagent no.	total luciferase, z-score	total luciferase, % of control	luciferase per cell, z-score
COLGALT2	1	1.1	104	0.656
COLGALT2	2	0.391	89.7	0.596
COLGALT2	3	1.01	102	0.0381
LIX1	1	1.09	104	0.705
LIX1	2	0.871	99.2	0.753
LIX1	3	2.21	126	2.73
OR10T2	1	-0.211	77.7	0.0503
OR10T2	2	-0.915	63.7	-1.37
OR10T2	3	2.25	127	1.79
TUBBP5	1	0.649	94.8	0.164
TUBBP5	2	-0.0233	81.4	-0.0239
TUBBP5	3	0.182	85.5	-0.0453
PPP4R3A	1	3.98 (active)	161	3.43
PPP4R3A	2	-0.0388	81.1	-0.556
PPP4R3A	3	-0.0641	80.6	-0.458
SFR1	1	0.0814	83.5	1.38
SFR1	2	-0.0409	81.1	0.0984
SFR1	3	1.63	114	1.93
TRAFD1	1	3.16 (active)	145	2.67
TRAFD1	2	0.331	88.5	0.529
TRAFD1	3	-0.542	71.1	0.525
ZHX2	1	0.0263	82.4	0.032
ZHX2	2	-0.483	72.3	-0.555
ZHX2	3	0.521	92.2	0.336
ZFP36L1	1	-2.81	26.1	-1.94
ZFP36L1	2	-1.46	52.8	-1.78
ZFP36L1	3	-0.84	65.2	-1.23

Hits, of those listed so far:
Target gene	reagent no.	total luciferase, z-score	total luciferase, % of control	luciferase per cell, z-score
PPP4R3A	1	3.98 (active)	161	3.43
TRAFD1	1	3.16 (active)	145	2.67

More entries:
Target gene	reagent no.	total luciferase, z-score	total luciferase, % of control	luciferase per cell, z-score
DUSP3	1	0.139	84.7	0.254
DUSP3	2	0.104	84	-0.236
DUSP3	3	-0.613	69.7	-0.89
MUC17	1	-0.922	63.6	0.804
MUC17	2	-0.967	62.6	-1.11
MUC17	3	-0.339	75.2	0.0632
PCDH8	1	2.06	123	2.08
PCDH8	2	1.24	107	0.769
PCDH8	3	-0.894	64.1	-0.885
NALCN	1	-2.28	36.5	-2.88
NALCN	2	-0.965	62.7	-1.27
NALCN	3	-0.885	64.3	-0.729
UBL5	1	1.76	117	3.05
UBL5	2	-0.25	76.9	0.561
UBL5	3	-0.978	62.4	0.175
RND1	1	-0.813	65.7	-1.13
RND1	2	0.695	95.7	0.294
RND1	3	-0.76	66.8	-0.569
OPN1MW	1	0.894	99.7	0.114
OPN1MW	2	-1.42	53.6	-1.28
OPN1MW	3	-1.03	61.5	-1.67
TRIM15	1	-0.203	77.8	-0.26
TRIM15	2	-0.226	77.4	-0.228
TRIM15	3	-0.612	69.7	-0.338
MSLN	1	0.514	92.1	1.73
MSLN	2	-0.786	66.3	2.4
MSLN	3	-0.872	64.5	-0.094
CAT	1	0.306	88	0.648
CAT	2	2.32	128	1.9
CAT	3	0.565	93.1	0.287
